Results on 2 substances are retold here after PMC12590881.

The chains behind the UniProt entries cited, without tags or fusion partners.
UniProt O60260: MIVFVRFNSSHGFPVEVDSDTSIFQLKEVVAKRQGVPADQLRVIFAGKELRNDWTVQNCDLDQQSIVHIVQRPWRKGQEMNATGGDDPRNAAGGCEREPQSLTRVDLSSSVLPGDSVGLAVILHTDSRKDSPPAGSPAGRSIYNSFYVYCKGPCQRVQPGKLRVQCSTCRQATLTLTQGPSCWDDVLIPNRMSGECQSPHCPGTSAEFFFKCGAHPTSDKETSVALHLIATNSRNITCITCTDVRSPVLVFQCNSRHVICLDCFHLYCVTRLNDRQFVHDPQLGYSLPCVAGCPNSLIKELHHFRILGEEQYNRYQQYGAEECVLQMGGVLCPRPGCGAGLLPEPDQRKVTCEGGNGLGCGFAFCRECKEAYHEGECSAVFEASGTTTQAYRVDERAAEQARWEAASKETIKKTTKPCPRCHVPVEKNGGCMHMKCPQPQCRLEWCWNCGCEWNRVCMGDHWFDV

The target in experiment [1] is PHB2-APEX2-FLAG (human) (UniProt Q99623). Put plainly: proximity labelling; APEX2 labelling in HeLa Parkin/PHB2-APEX2 cells treated with DMSO or OA (oligomycin 2.5 uM + antimycin A 250 nM) for 4 h; biotin-phenol 0.5 mM 30 min, H2O2 0.5 mM 1 min; lysis in RIPA; biotinylated proteins purified on streptavidin magnetic beads; Western blot.
Experiment [2] shares this target. Put plainly: condition: only DMSO (basal conditions, without OA); proximity labelling; as a1, the DMSO-treated (basal) sample alone; streptavidin-purified biotinylated proteins, Western blot.
Experiment [3] has the same target. Put plainly: proximity labelling; APEX2 labelling in HeLa Parkin/PHB2-APEX2 cells, DMSO against OA 4 h; streptavidin-purified biotinylated proteins; label-free proteomic analysis (mass spectrometry).

These are yes or no findings as the source states them, for the method shown. In cells and extracts the contact can be indirect. Here binding means that the protein was enriched with, or labelled near, the bait; the list need not be complete. For some of these results: A no says only that the protein was not detected with the bait.

As for p62/SQSTM1 (from UniProt Q13501 1-440), the binding entry in the experiment with PHB2-APEX2-FLAG (human) [1] is recorded as “binds”.

On to Parkin (from UniProt O60260 1-465), for which the binding result in the experiment with PHB2-APEX2-FLAG (human) [2] was “no binding”; with PHB2-APEX2-FLAG (human) [3], “binds”; in the experiment with PHB2-APEX2-FLAG (human) [1], “binds”.
